Experimental data from patent publication US20210324061A1 (ARGENX BVBA, published 2021).
These are yes or no findings as the source states them, for the method shown. Some binding calls cover weakened binding; strength is not graded here.

Protein sequences, listed by entry. Tags and fused reporters are not part of them. Lines headed by an entry give the natural chain unless they say otherwise; changes in a name come on top.
UniProt Q14392: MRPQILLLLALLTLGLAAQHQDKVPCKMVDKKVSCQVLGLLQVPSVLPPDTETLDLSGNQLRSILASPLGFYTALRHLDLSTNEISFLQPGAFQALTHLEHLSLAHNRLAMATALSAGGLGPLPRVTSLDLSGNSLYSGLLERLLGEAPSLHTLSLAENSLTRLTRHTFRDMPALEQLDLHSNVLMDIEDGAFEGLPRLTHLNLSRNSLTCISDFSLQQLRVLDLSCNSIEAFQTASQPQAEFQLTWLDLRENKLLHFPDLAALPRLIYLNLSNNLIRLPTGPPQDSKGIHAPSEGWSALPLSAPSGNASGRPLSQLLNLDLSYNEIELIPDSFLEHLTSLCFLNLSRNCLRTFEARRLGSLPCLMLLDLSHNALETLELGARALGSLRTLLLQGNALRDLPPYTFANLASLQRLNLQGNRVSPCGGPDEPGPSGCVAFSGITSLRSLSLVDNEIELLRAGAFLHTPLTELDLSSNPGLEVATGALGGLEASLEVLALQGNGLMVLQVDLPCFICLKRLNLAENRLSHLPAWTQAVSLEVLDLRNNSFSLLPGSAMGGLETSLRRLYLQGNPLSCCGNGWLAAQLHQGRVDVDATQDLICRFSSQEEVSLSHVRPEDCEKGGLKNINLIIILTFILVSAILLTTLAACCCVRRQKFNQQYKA
UniProt P01137: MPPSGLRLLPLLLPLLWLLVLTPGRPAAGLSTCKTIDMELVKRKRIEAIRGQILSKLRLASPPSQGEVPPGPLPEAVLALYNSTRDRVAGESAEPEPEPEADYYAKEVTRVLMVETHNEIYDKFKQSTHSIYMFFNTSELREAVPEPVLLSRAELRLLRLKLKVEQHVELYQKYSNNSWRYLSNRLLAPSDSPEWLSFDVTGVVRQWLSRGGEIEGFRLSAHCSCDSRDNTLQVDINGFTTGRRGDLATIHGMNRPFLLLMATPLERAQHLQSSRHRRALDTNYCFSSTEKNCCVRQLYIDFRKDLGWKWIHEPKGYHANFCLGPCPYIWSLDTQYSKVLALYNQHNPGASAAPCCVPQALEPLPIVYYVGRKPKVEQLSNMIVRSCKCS

Target: recombinant human GARP (human) (UniProt Q14392)
Experiment: ELISA: GARP coated at 1 µg/mL, LAP at 5 µg/mL captured, anti-LAP-HRP

Substance: recombinant latency associated peptide (LAP) of TGF-β (from UniProt P01137 30-278)
- binding: binds
